From a melanoma drug combination screen (doi:10.1371/journal.pone.0140310); values rounded.

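Human melanoma cells were exposed to two drugs together for 72 h in 1,536-well plates and read by automated microscopy after fixing and staining. The read-out is the fraction of cleaved-PARP-positive nuclei, in % of that fraction in the DMSO control; 200 means twice the control level of this apoptosis marker. Concentrations were fixed for each drug; these are the higher of two levels. The file gives one value for each pair and line, without errors, so small differences may be noise. Basal and induced levels differ widely between cell lines.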
An unselected part of the screen is shown.

Every entry is a combination with U73122 at 2 µM: COc1ccc2c(c1)CCC1C2CCC2(C)C(NCCCCCCN3C(=O)C=CC3=O)CCC12 (stereo not shown)

Drug key:
Src-I1 (10 µM): COc1cc2ncnc(Nc3ccc(Oc4ccccc4)cc3)c2cc1OC
GSK0660 (5 µM): COC(=O)c1sccc1S(=O)(=O)Nc1ccc(Nc2ccccc2)cc1OC
sorafenib (2 µM): CNC(=O)c1cc(Oc2ccc(NC(=O)Nc3ccc(Cl)c(C(F)(F)F)c3)cc2)ccn1
docetaxel (0.0005 µM): CC(=O)O[C@@]12CO[C@@H]1C[C@H](O)[C@@]1(C)C(=O)[C@H](O)C3=C(C)[C@@H](OC(=O)[C@H](O)[C@@H](NC(=O)OC(C)(C)C)c4ccccc4)C[C@@](O)([C@@H](OC(=O)c4ccccc4)[C@H]21)C3(C)C
AZD7762 (0.1 µM): NC(=O)Nc1cc(-c2cccc(F)c2)sc1C(=O)N[C@H]1CCCNC1
ABT-263 (2 µM): CC1(C)CCC(c2ccc(Cl)cc2)=C(CN2CCN(c3ccc(C(=O)NS(=O)(=O)c4ccc(N[C@H](CCN5CCOCC5)CSc5ccccc5)c(S(=O)(=O)C(F)(F)F)c4)cc3)CC2)C1
vorinostat (0.4 µM): O=C(CCCCCCC(=O)Nc1ccccc1)NO
PD173074 (0.5 µM): CCN(CC)CCCCNc1ncc2cc(-c3cc(OC)cc(OC)c3)c(NC(=O)NC(C)(C)C)nc2n1
bexarotene (10 µM): C=C(c1ccc(C(=O)O)cc1)c1cc2c(cc1C)C(C)(C)CCC2(C)C
nilotinib (1 µM): Cc1cn(-c2cc(NC(=O)c3ccc(C)c(Nc4nccc(-c5cccnc5)n4)c3)cc(C(F)(F)F)c2)cn1
bortezomib (0.005 µM): CC(C)C[C@H](NC(=O)[C@H](Cc1ccccc1)NC(=O)c1cnccn1)B(O)O
MK-2206 (2 µM): NC1(c2ccc(-c3nc4ccn5c(=O)[nH]nc5c4cc3-c3ccccc3)cc2)CCC1
NVP-TAE684 (0.4 µM): COc1cc(N2CCC(N3CCN(C)CC3)CC2)ccc1Nc1ncc(Cl)c(Nc2ccccc2S(=O)(=O)C(C)C)n1
tamatinib (2 µM): COc1cc(Nc2ncc(F)c(Nc3ccc4c(n3)NC(=O)C(C)(C)O4)n2)cc(OC)c1OC
temozolomide (10 µM): Cn1nnc2c(C(N)=O)ncn2c1=O
SU6656 (2 µM): CN(C)S(=O)(=O)c1ccc2c(c1)/C(=C/c1cc3c([nH]1)CCCC3)C(=O)N2
dovitinib (0.5 µM): CN1CCN(c2ccc3nc(-c4c(N)c5c(F)cccc5[nH]c4=O)[nH]c3c2)CC1
vincristine (0.0005 µM): CC[C@]1(O)C[C@H]2CN(CCc3c([nH]c4ccccc34)[C@@](C(=O)OC)(c3cc4c(cc3OC)N(C=O)[C@H]3[C@@](O)(C(=O)OC)[C@H](OC(C)=O)[C@]5(CC)C=CCN6CC[C@]43[C@@H]65)C2)C1
PF-562271 (0.4 µM): CN(c1ncccc1CNc1nc(Nc2ccc3c(c2)CC(=O)N3)ncc1C(F)(F)F)S(C)(=O)=O
FH535 (5 µM): Cc1cc([N+](=O)[O-])ccc1NS(=O)(=O)c1cc(Cl)ccc1Cl

temozolomide gave WM3526: 90.8; COLO 829: 153.
dovitinib gave WM3526: 86.7; COLO 829: 111.
ABT-263 gave WM3526: 445; COLO 829: 109.
AZD7762 gave WM3526: 104; COLO 829: 51.8.
bortezomib gave WM3526: 1410; COLO 829: 829.
PF-562271 gave WM3526: 67.2; COLO 829: 62.8.
tamatinib gave WM3526: 91.3; COLO 829: 161.
MK-2206 gave WM3526: 161; COLO 829: 142.
nilotinib gave WM3526: 185; COLO 829: 70.8.
vorinostat gave WM3526: 136; COLO 829: 135.
Src-I1 gave WM3526: 340; COLO 829: 88.2.
NVP-TAE684 gave WM3526: 155; COLO 829: 111.
FH535 gave WM3526: 162; COLO 829: 195.
docetaxel gave WM3526: 1750; COLO 829: 572.
SU6656 gave WM3526: 105; COLO 829: 110.
sorafenib gave WM3526: 84.9; COLO 829: 131.
GSK0660 gave WM3526: 85.2; COLO 829: 159.
vincristine gave WM3526: 370; COLO 829: 109.
PD173074 gave WM3526: 119; COLO 829: 101.
bexarotene gave WM3526: 58.9; COLO 829: 185.